These are yes or no findings as the source states them, for the method shown. For some assays here: Binding seen in cells or lysates may run through a third protein. Some entries that bind do so weakly or less than the wild type. For some assays here: Where a sequence is shown, tags or fusion partners need not be part of it.

The chains behind the UniProt entries cited, without tags or fusion partners. Where a name states a change or a piece, a line headed by the entry shows the natural chain unless it says otherwise. Residues count along the entry.
UniProt P06729: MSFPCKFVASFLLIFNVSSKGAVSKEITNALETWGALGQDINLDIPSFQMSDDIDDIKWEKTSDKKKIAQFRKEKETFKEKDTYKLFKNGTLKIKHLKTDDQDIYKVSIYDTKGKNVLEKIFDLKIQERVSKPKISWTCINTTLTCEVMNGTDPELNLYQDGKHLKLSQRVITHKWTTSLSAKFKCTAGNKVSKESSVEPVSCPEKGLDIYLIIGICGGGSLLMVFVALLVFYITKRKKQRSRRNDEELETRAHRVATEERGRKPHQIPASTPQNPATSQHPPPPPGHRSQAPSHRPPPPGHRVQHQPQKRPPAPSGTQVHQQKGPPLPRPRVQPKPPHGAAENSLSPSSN
human CD2: residues 25-351 of P06729
CD2 cytoplasmic region (CD2221-327): residues 245-351 of P06729
CD2221-299: residues 245-323 of P06729
GST-fusion of the truncated CD2 tail (CD2221-282): residues 245-306 of P06729

Binding data for four molecules are collected here from patent publication US20020127657A1.

For test [1], the target named is human CD2 (human) (UniProt P06729). Put plainly: co-immunoprecipitation with anti-CD2 mAb from cotransfected COS7 cells, anti-FLAG Western blot. (A western blot detects proteins with antibodies after separation by electrophoresis.)
For test [2] the target is unchanged. In words: co-immunoprecipitation from Jurkat transformants, anti-CD2 Western blot.
For test [3] the target is unchanged. Put plainly: co-immunoprecipitation with anti-FLAG mAb from Jurkat transfectants, anti-CD2 Western blot.
Test [4] has the same target. Put plainly: co-immunoprecipitation from COS7 cells, anti-FLAG Western blot.
For test [5], the target named is CD2 cytoplasmic region (CD2221-327) (human) (UniProt P06729). In words: yeast two-hybrid.
Another test concerns the target CD2221-299 (human) (UniProt P06729). Put plainly: yeast two-hybrid.
Test [6] deals with CD2221-282 (yeast two-hybrid construct) (human) (UniProt P06729). In words: yeast two-hybrid.
In test [7] the target is GST-fusion of the truncated CD2 tail (CD2221-282) (human) (UniProt P06729). Put plainly: in vitro co-immunoprecipitation on GST-CD2 beads, with and without ZnCl2.

B1: FLAG-CD2BP2 (protein)
chain: DYKDDDDKMPKRKVTFQGVGDEEDEDEIIVPKKKLVDPVAGSGGPGSRFKGKHSLDSDEEEDDDDGGSSKYDILASEDVEGQEAATLPSEGGGRITPFNLQEEMEEGHFDADGNYFLNRDAQIRDSWLDNIDWVKIRERPPGQRQASDSEEEDSLGQTSMSAQALLEGLLELLLPRETVAGALRRLGARGGGKGRKGPGQPSSPQRLDRLSGLADQMVARGNLGVYQETRERLAMRLKGLGCQTLGPHNPTPPPSLDMFAEELAEEELETPTPTQRGEAESRGDGLVDVMWEYKWENTGDAELYGPFTSAQMQTWVSEGYFPDGVYCRKLDPPGGQFYNSKRIDFDLYT
Regarding B1, the binding result with human CD2 (human) [1], in the test with human CD2 (human) [2], with human CD2 (human) [3] and with human CD2 (human) [4] was “binds” each time.

B2: CD2BP2129-341 (protein)
chain: RERPPGQRQASDSEEEDSLGQTSMSAQALLEGLLELLLPRETVAGALRRLGARGGGKGRKGPGQPSSPQRLDRLSGLADQMVARGNLGVYQETRERLAMRLKGLGCQTLGPHNPTPPPSLDMFAEELAEEELETPTPTQRGEAESRGDGLVDVMWEYKWENTGDAELYGPFTSAQMQTWVSEGYFPDGVYCRKLDPPGGQFYNSKRIDFDLYT
B2: the binding entry in test [5] was “binds”.

B3: CD2 binding protein 2 (CD2BP2) (protein)
chain: MPKRKVTFQGVGDEEDEDEIIVPKKKLVDPVAGSGGPGSRFKGKHSLDSDEEEDDDDGGSSKYDILASEDVEGQEAATLPSEGGGRITPFNLQEEMEEGHFDADGNYFLNRDAQIRDSWLDNIDWVKIRERPPGQRQASDSEEEDSLGQTSMSAQALLEGLLELLLPRETVAGALRRLGARGGGKGRKGPGQPSSPQRLDRLSGLADQMVARGNLGVYQETRERLAMRLKGLGCQTLGPHNPTPPPSLDMFAEELAEEELETPTPTQRGEAESRGDGLVDVMWEYKWENTGDAELYGPFTSAQMQTWVSEGYFPDGVYCRKLDPPGGQFYNSKRIDFDLYT
In the case of B3, the binding result (in the test with CD2221-299 (human); in test [6]) was “binds” in each case.

B4: CD2BP2 GYF domain (protein)
chain: DVMWEYKWENTGDAELYGPFTSAQMQTWVSEGYFPDGVYCRKLDPPGGQFYNSKRIDFDLYT
On to B4, for which the binding entry in test [7] is “binds”.
